# Results are given in words; binding and its absence hold for the method and conditions named. In cells and extracts the contact can be indirect. A yes stands for co-enrichment or nearness to the bait. Other partners may have been found.
# Sequences of proteins named here, by UniProt entry; tags and fusion partners are left off. A change or cut given only in a name is not applied to a line headed by its entry.
# UniProt O75792: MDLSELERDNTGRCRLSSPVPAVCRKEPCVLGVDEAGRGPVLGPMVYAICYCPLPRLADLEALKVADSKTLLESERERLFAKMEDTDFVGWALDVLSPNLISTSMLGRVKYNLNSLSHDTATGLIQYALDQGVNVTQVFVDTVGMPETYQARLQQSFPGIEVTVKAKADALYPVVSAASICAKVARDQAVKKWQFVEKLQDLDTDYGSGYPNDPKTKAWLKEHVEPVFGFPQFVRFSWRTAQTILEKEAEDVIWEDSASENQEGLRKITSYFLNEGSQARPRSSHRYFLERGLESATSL
# UniProt O95831: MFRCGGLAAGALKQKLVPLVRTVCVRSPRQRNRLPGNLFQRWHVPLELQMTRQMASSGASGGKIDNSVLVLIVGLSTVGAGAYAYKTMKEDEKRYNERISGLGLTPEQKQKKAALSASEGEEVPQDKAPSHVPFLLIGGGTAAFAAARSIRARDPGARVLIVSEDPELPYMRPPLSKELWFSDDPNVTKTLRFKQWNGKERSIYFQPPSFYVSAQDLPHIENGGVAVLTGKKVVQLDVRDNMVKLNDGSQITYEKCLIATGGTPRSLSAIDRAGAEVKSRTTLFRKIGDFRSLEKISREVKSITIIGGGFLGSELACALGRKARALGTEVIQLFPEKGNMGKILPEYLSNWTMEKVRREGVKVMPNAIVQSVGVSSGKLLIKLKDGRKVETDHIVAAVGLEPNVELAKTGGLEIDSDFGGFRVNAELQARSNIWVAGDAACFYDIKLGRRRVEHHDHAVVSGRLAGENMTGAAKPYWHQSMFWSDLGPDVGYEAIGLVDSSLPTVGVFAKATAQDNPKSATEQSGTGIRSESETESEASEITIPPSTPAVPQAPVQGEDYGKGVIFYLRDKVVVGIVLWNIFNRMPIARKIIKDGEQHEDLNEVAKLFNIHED
# UniProt P50990: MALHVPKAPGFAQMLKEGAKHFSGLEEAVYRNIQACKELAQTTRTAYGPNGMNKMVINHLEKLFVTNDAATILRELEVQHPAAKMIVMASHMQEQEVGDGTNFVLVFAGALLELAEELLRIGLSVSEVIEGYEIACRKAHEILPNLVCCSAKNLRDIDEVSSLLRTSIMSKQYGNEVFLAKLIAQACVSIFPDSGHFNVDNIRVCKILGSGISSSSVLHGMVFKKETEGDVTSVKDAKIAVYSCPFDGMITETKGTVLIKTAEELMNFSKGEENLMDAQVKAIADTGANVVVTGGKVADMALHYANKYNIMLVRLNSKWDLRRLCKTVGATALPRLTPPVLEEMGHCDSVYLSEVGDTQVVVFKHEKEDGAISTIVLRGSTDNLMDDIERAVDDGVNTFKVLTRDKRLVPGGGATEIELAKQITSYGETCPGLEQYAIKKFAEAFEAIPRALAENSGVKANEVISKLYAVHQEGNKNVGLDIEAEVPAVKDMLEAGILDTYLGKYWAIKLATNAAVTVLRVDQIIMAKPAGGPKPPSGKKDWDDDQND
# Biological target: eGFP-RNASEH2A (human) (UniProt O75792)
# Assay: affinity purification with mass spectrometry; 1 mg whole cell lysate (NP-40 lysis buffer) of HEK293 cells transfected with eGFP-RNASEH2A or eGFP alone (control); GFP-Trap Magnetic Agarose beads, 4 °C, 1 h; washes in 50 mM Tris-HCl pH 7.5, 150 mM NaCl with and without 0.25% NP-40; eluate run on a gel, nano-LC-MS/MS; two sets of immunoprecipitations; hits by log fold change > 1.5 and FDR adjusted p < 0.05 against eGFP alone
row,Molecule,binding
1,"Apoptosis-inducing factor 1, mitochondrial (from UniProt O95831)",binds
2,T-complex protein 1 subunit theta (from UniProt P50990 1-548),binds
3,"Ribonuclease H2 subunit B (protein, UniProt Q5TBB1 1-312) MAAGVDCGDGVGARQHVFLVSEYLKDASKKMKNGLMFVKLVNPCSGEGAIYLFNMCLQQLFEVKVFKEKHHSWFINQSVQSGGLLHFATPVDPLFLLLHYLIKADKEGKFQPLDQVVVDNVFPNCILLLKLPGLEKLLHHVTEEKGNPEIDNKKYYKYSKEKTLKWLEKKVNQTVAALKTNNVNVSSRVQSTAFFSGDQASTDKEEDYIRYAHGLISDYIPKELSDDLSKYLKLPEPSASLPNPPSKKIKLSDEPVEAKEDYTKFNTKDLKTEKKNSKMTAAQKALAKVDKSGMKSIDTFFGVKNKKKIGKV",binds

# The remaining lines, values ahead:
row,binding,Molecule
1,binds,DnaJ homolog subfamily A member 1 (from UniProt P31689 1-397)
2,binds,"Ribonuclease H2 subunit C (protein, UniProt Q8TDP1 1-164) MESGDEAAIERHRVHLRSATLRDAVPATLHLLPCEVAVDGPAPVGRFFTPAIRQGPEGLEVSFRGRCLRGEEVAVPPGLVGYVMVTEEKKVSMGKPDPLRDSGTDDQEEEPLERDFDRFIGATANFSRFTLWGLETIPGPDAKVRGALTWPSLAAAIHAQVPED"

# Source: publication PMC7998727
